According to paper PMC4993430:
These are yes or no findings as the source states them, for the method shown. In cells and extracts the contact can be indirect. Some results given as binding are weak or reduced against the parent protein; the word gives no strength. Values belong to the molecule of their own block, whether it stands above or below them.

Protein sequences, listed by entry. Tags and fused reporters are not part of them.
UniProt Q9DE14: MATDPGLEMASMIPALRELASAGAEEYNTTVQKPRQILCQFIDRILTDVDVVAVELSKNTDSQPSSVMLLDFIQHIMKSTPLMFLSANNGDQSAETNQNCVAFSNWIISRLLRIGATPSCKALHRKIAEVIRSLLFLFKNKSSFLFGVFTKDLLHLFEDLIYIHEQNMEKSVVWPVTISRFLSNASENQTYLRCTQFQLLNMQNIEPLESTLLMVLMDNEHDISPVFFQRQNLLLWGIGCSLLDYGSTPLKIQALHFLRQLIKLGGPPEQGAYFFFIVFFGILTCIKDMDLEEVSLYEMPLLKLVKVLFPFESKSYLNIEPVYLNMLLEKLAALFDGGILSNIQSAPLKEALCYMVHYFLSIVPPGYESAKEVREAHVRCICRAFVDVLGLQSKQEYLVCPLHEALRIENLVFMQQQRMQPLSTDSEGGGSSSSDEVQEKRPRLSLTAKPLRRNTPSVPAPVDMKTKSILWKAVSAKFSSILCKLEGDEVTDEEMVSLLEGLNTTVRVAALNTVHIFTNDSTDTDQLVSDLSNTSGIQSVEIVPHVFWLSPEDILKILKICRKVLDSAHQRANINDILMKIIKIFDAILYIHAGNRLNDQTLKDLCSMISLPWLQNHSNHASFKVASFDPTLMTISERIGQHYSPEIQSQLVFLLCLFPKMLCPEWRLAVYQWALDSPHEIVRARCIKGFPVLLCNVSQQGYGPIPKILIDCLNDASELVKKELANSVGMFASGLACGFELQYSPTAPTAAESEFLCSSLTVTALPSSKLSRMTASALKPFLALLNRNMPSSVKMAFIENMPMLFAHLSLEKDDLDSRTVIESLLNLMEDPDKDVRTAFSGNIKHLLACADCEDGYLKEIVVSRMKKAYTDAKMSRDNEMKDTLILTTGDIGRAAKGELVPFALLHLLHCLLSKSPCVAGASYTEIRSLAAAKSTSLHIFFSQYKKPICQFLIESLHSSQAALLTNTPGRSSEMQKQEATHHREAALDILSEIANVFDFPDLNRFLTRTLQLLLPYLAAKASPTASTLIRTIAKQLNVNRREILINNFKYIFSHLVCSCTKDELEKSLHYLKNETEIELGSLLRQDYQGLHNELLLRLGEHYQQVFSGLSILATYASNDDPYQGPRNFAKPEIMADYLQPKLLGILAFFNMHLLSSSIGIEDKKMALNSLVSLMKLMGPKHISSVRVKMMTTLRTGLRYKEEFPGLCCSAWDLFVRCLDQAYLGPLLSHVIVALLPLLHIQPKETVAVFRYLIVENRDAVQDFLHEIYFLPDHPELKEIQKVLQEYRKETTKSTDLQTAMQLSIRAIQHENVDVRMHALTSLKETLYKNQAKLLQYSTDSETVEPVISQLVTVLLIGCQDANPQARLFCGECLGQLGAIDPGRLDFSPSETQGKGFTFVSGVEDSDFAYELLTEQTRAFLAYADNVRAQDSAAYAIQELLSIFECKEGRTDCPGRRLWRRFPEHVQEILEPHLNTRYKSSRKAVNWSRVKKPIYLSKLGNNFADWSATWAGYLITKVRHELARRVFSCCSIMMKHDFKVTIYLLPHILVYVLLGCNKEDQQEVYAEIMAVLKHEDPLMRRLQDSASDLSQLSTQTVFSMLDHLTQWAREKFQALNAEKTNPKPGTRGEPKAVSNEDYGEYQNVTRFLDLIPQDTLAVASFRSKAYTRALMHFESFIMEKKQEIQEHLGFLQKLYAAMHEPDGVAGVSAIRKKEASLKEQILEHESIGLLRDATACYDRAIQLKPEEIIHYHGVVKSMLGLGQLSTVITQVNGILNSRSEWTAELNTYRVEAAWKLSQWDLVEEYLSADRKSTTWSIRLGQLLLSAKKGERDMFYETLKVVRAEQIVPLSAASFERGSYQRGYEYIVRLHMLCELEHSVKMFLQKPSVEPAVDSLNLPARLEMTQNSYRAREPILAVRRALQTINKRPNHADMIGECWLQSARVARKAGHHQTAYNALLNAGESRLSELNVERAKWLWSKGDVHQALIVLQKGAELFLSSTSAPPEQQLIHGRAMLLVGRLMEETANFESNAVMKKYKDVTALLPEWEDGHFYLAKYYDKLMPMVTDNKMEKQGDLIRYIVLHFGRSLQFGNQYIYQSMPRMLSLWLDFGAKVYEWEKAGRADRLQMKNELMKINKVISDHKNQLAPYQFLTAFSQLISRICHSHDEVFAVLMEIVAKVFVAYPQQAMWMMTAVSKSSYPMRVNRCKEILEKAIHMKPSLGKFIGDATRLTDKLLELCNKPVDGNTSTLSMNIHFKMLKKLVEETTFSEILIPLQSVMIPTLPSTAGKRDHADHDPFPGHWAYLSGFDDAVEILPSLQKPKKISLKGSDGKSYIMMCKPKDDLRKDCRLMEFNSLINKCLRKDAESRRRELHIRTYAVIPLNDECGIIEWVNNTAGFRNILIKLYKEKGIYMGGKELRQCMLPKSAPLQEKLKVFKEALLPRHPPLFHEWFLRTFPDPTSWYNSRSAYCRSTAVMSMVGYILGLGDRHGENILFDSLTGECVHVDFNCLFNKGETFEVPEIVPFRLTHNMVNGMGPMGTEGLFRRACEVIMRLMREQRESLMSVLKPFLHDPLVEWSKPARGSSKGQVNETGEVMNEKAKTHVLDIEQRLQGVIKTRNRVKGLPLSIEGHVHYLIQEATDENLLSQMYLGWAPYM

Molecular target: T1, Xenopus Mcm10 (Xenopus laevis (endogenous in egg extract)) (UniProt Q5EAW4)
T1 sequence: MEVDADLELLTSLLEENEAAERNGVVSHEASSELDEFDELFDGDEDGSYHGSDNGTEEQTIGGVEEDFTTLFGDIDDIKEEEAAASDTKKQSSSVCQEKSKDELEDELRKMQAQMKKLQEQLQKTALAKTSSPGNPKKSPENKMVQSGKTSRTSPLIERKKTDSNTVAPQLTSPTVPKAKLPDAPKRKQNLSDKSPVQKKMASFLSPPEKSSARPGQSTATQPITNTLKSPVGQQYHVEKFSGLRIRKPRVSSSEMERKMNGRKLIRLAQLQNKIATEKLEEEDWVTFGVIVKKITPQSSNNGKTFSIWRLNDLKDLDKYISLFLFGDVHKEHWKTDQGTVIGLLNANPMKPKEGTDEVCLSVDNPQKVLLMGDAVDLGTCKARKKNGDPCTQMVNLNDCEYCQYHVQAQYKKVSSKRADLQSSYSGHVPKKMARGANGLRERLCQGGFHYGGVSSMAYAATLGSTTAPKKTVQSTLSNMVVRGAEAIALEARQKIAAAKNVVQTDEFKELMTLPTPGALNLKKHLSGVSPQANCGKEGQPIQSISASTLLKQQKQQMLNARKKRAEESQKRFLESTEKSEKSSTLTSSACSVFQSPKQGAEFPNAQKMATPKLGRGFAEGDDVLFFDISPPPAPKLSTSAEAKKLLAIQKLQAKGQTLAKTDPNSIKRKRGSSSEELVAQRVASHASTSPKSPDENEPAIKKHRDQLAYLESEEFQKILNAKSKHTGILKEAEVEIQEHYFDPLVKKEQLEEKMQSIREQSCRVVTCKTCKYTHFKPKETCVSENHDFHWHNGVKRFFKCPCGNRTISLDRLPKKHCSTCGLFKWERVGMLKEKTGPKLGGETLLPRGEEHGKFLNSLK
Experiment: co-IP; chromatin isolated in S-phase (45 min) from Xenopus egg extract, with or without 50 uM camptothecin; DNA digested with Benzonase, sample sonicated; supernatant immunoprecipitated with Mcm10 antibody on protein G-Dynabeads, 1 h at 4°C; immunoblot

- binding: binds
Molecule: ATR (from UniProt Q9DE14 1-2654)

- binding: binds
B1: Mre11 (protein, UniProt Q9W6K1 1-711)
chain: MSSSSSSLDDEDTFKILVATDIHLGFMEKDAVRGNDSFVAFDEILRLAQDNEVDFLLLGGDLFHDNKPSRRTLHICLEQLRKYCMGDRPIEFEVLSDQSVNFGYSKFPWVNYQDNNLNISLPVFSVHGNHDDPTGADALCALDILSSAGLVNHFGRATSVEKIDISPVLLQKGHSKIALYGLGSIPDERLYRMFVNKQVMMLRPREDESSWFNLFVIHQNRSKHGPTNYIPEQFLDEFLDLVIWGHEHECKIAPTRNEQQLFYVSQPGSSVATSLSPGEAEKKHVGLLRIKGKKMNMQKIPLQTVRQFFIEDLVLSDYPDIFNPDNPRVTQEIETFCIEKVEAMLDTAERERLGNPRQPDKPLIRLRVDYTGGFEPFNTLRFSQKFVDRTANPKDIIHFFRHKEQKDKKDSITINFGKIDSKPLLEGTTLRVEDLVKEYFKTAEKNVQLSLLTERGMGEAVQEFVDKEEKDALEELVKFQLEKTQRFLKERHIDAEEEKIDEEVRKFRETRKTNTNEEDEEVREAIQRARTHRSQAPDVEMSDEDDDALLRKVSLSDDEDVRASMPARGRGRGRARGGRGQSTTTRGTSRRGRGSASADQPSSGRATKATGKNMSILDAFKPSSRQPTARNVAKKTYSEDIEDDDSDLEEVSFTPSSVIESRRTSSTSTSYSRKSTQPQSQATKAHFFDDDDDEEDFDPFKKSGPSRRGRR
